Experiment [1] concerns the target MogR, the flagellar gene transcriptional repressor (Listeria monocytogenes EGD-e). The experiment can be described thus: ITC; TrxA, TrxAox or TrxA active-site mutants (80-200 uM) in the syringe, PrfA, MogR, GmaR or MogR and GmaR (8-20 uM) in the cuvette; 25 C; 25 mM Tris-HCl pH 7.5, 100 mM NaCl; 15 uL injections, 300 s spacing; 1:1 binding model; both purified.
In experiment [2] the target is GmaR, anti-repressor of MogR (Listeria monocytogenes EGD-e). Described as above.

Results are given in words; binding and its absence hold for the method and conditions named. Binding can be weak; no strength is given.

B1: Listeria monocytogenes thioredoxin A (TrxA) (enzyme, Listeria monocytogenes EGD-e, UniProt P0A4L3 1-103, looked up)
chain: MVKEITDATFEQETSEGLVLTDFWATWCGPCRMVAPVLEEIQEERGEALKIVKMDVDENPETPGSFGVMSIPTLLIKKDGEVVETIIGYRPKEELDEVINKYV
notes: Thioredoxin A (TrxA, Lmo1233) of L. monocytogenes EGD-e, full-length ORF; pET30a(+) may add further vector-encoded residues between the His tag and the ORF; also called Lmo1233
Regarding B1, the binding entry in experiment [1] is reported as “binds”; in experiment [2] it was “binds weakly”.
